# Several values for one entry are separate records, joined by “and”; a condition that tells them apart may be missing. Equal entries are not always repeated.
# Key:
# Assay type in all cases: cell-based
# [1] = test system: normal human endocervical epithelial cells; test: MTT cell viability assay, endocervical epithelial cells
# Method: (§1) Briefly, exponential growing vaginal, ectocervical, and endocervical epithelial cells were seeded into 96-well plates at a density of 2×10^4 cells/well and incubated for 24 h at 37° C. prior to drug exposure. On the day of treatment, culture medium was aspirated from the wells and replaced with fresh medium containing serial two-fold drug concentrations ranging from 7.8 μM to 1000 μM. N-9 (IGEPAL CO-630; Rhone Poulenc, Cranbury, N.J.) was diluted in PBS. Triplicate wells were used for each treatment. Culture plates were then incubated for 3 hours before adding 10 μl of MTT solution (5 mg/ml in PBS) to each well. Wells containing only medium and MTT were used as control for each plate. The tetrazolium/formazan reaction was allowed to proceed for 4 hours at 37° C., and then 100 μl of the solubilization buffer (10% sodium dodecyl sulfate in 0.1% HCl) was added to all wells and mixed thoroughly to dissolve the dark blue formazan crystals. After an overnight incubation at 37° C., the OD at 540 nm were measured using a 96-well multiscanner autoreader with the solubilization buffer serving as blank. To translate the OD540 values into the number of live cells in each well, the OD540 values were compared to those of standard OD540-versus-cell number curves generated for each cell line. The percent survival was calculated using the formula: % survival=Live cell number [test]/Live cell number [control]×100. The results were expressed as mean IC50 values for three independent experiments. The IC50 [MTT] was defined as the concentration required for 50% reduction in cell survival.
# (§2) Cell viability was measured by the MTT assay.
# [2] = test system: normal human ectocervical epithelial cells; test: MTT cell viability assay, ectocervical epithelial cells
# Method: as §1, §2
# [3] = test system: normal human vaginal epithelial cells; test: MTT cell viability assay, vaginal epithelial cells
# Method: as §1, §2
compound,measurement,setting,value
"CCCCCCCCCc1ccc(OCCOCCOCCOCCOCCOCCOCCOCCOCCO)cc1 [Compound N-9, nonoxynol-9, reference compound]",SI (ratio of IC50[MTT] to EC50[SIA]) endocervical epithelial cells,[1],0.3 and 0.4
same,SI (ratio of IC50[MTT] to EC50[SIA]) ectocervical epithelial cells,[2],0.7
same,SI (ratio of IC50[MTT] to EC50[SIA]) vaginal epithelial cells,[3],0.7
S=C(NCCc1ccccn1)Nc1ccccn1 [HI 207],SI (ratio of IC50[MTT] to EC50[SIA]) endocervical epithelial cells,[1],>3.5
same,SI (ratio of IC50[MTT] to EC50[SIA]) ectocervical epithelial cells,[2],>3.5
same,SI (ratio of IC50[MTT] to EC50[SIA]) vaginal epithelial cells,[3],>3.5
Fc1ccccc1CCNC(=S)Nc1ccc(Br)cn1 [HI 240],SI (ratio of IC50[MTT] to EC50[SIA]) endocervical epithelial cells,[1],>6.8
same,SI (ratio of IC50[MTT] to EC50[SIA]) ectocervical epithelial cells,[2],>6.8
same,SI (ratio of IC50[MTT] to EC50[SIA]) vaginal epithelial cells,[3],>6.8
S=C(NCCc1ccccc1Cl)Nc1ccc(Br)cn1 [HI 253],SI (ratio of IC50[MTT] to EC50[SIA]) endocervical epithelial cells,[1],>14.2
same,SI (ratio of IC50[MTT] to EC50[SIA]) ectocervical epithelial cells,[2],>14.2
same,SI (ratio of IC50[MTT] to EC50[SIA]) vaginal epithelial cells,[3],>14.2
S=C(NCCC1=CCCCC1)Nc1ccc(Br)cn1 [HI 346],SI (ratio of IC50[MTT] to EC50[SIA]) endocervical epithelial cells,[1],13.8
same,SI (ratio of IC50[MTT] to EC50[SIA]) ectocervical epithelial cells,[2],18.2
same,SI (ratio of IC50[MTT] to EC50[SIA]) vaginal epithelial cells,[3],>23.8
S=C(NCCC1=CCCCC1)Nc1ccc(Cl)cn1 [HI 445],SI (ratio of IC50[MTT] to EC50[SIA]) endocervical epithelial cells,[1],3.2
same,SI (ratio of IC50[MTT] to EC50[SIA]) ectocervical epithelial cells,[2],12.1
same,SI (ratio of IC50[MTT] to EC50[SIA]) vaginal epithelial cells,[3],10.1
